# “And” between values parts separate entries of the source, which are not always exact repeats. Equal values may be shown once. Where a name gives a salt, the structure may show the parent alone. ± gives the standard deviation of the averaged measurements. Some of the results follow. Plates or batches differ in their baseline, so values are only roughly comparable.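 Primary human stellate myofibroblasts activated in culture; inactivation shown by regained lipid droplets. Readout: fraction of Hoechst-counted cells exceeding a per-plate Bodipy threshold, duplicate wells, each plate with DMSO negative and nortriptyline positive controls. Hits: control-normalized score beyond the plate's top-tenth-percentile nortriptyline wells, or among its three best wells. Final well concentrations unstated.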
# System: primary human hepatic stellate cells (donor 1)
# Assay: percent Bodipy-positive cells; higher = more lipid droplet accumulation
# Conditions: 48 h
# Method: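 Primary lipid accumulation screen in primary human hepatic stellate cell myofibroblasts (donor 1, passage 8) in 384-well plates. 100 nL of library compound was pin-transferred into 30 µL medium in duplicate, and cells were treated for 48 h. The 'Scaled' score combines distance from plate baseline, toxicity and reproducibility penalties, and is normalised to nortriptyline (positive) and DMSO (negative) controls on each plate. A hit is defined as scaled >0.85 or among the top 3 wells per plate.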
# [1] = library stock concentration: 10 mM
# [2] = library stock concentration: 3.33 mM
smiles,measurement,setting,value
C[N+](C)(C)CCCCCC[N+](C)(C)C [Hexamethonium dibromide dihydrate],percent Bodipy-positive cells,,26.2 ± 1.6%
C[N+](C)(C)CCCCCC[N+](C)(C)C [Hexamethonium dichloride],percent Bodipy-positive cells,[1],44.7 ± 10%
Cc1ccc(/C=C2\CNC/C(=C\c3ccc(C)cc3)C2=O)cc1.Cl,percent Bodipy-positive cells,[1],100%
CC[N+](C)(C)Cc1ccccc1Br [Bretylium tosylate],percent Bodipy-positive cells,,8.29 ± 0.84%
same,percent Bodipy-positive cells,library stock concentration: 4.8 mM,15.3 ± 3%
same,percent Bodipy-positive cells,[1],21.6 ± 16%
CCCCCCCCc1ccc(-c2ccc(C(=O)O)cc2)cc1,percent Bodipy-positive cells,[1],17.1% and 5.05%
Cn1cc(-c2ccc3ncc(Cc4ccc5ncccc5c4)n3n2)cn1,percent Bodipy-positive cells,[2],6.49 ± 1.1%
same,percent Bodipy-positive cells,[1],23.7 ± 4.3%
Cc1cc(O)c(C=O)c2c1C(=O)Oc1c(C)c(O)c3c(c1O2)C(O)OC3=O (stereo not drawn) [Norstictic acid],percent Bodipy-positive cells,[1],19.9 ± 4.2%
CN1C(C)(C)CCCC1(C)C [Pempidine tartrate],percent Bodipy-positive cells,,9.49 ± 0.86%
same,percent Bodipy-positive cells,[1],52.8 ± 15%
O=c1[nH]ccc2c(S(=O)(=O)N3CCCNCC3)cccc12 [HA 1100 hydrochloride],percent Bodipy-positive cells,[1],7.25 ± 1.7%
Cc1cc(NC(=O)Nc2ccc(N(C)C)cc2)c2cc(F)cc(F)c2n1,percent Bodipy-positive cells,[2],9.63 ± 0.1%
same,percent Bodipy-positive cells,[1],14.6% and 8.84%
Cc1onc(-c2c(Cl)cccc2Cl)c1C(=O)N[C@@H]1C(=O)N2[C@@H]1SC(C)(C)[C@@H]2C(=O)O [Dicloxacillin Sodium],percent Bodipy-positive cells,[2],7.53 ± 0.19%
same,percent Bodipy-positive cells,[1],18.9 ± 3.9%
Cc1onc(-c2c(Cl)cccc2Cl)c1C(=O)N[C@@H]1C(=O)N2[C@@H]1SC(C)(C)[C@@H]2C(=O)O,percent Bodipy-positive cells,[1],28.3 ± 0.5%
Cc1onc(-c2c(Cl)cccc2Cl)c1C(=O)N[C@@H]1C(=O)N2[C@@H]1SC(C)(C)[C@@H]2C(=O)O [Dicloxacillin sodium],percent Bodipy-positive cells,[1],9.4 ± 0.17%
Cc1onc(-c2c(Cl)cccc2Cl)c1C(=O)N[C@@H]1C(=O)N2[C@@H]1SC(C)(C)[C@@H]2C(=O)O [Dicloxacillin sodium salt],percent Bodipy-positive cells,,35.9 ± 19%
CC1(C)Oc2ccc(C#N)cc2[C@@H](N2CCCC2=O)[C@@H]1O [Levcromakalim],percent Bodipy-positive cells,[1],7.44 ± 0.96%
CN(C)CCCN1c2ccccc2CCc2ccccc21.Cl [Imipramine hydrochloride],percent Bodipy-positive cells,[1],96.4 ± 2.6%
O=c1cc(N2CCOCC2)oc2c(-c3cccc4c3sc3ccccc34)cccc12,percent Bodipy-positive cells,library stock concentration: 80 uM,7.59 ± 0.37%
same,percent Bodipy-positive cells,library stock concentration: 400 uM,15.2 ± 2.5%
same,percent Bodipy-positive cells,library stock concentration: 2 mM,9.13 ± 3.3%
same,percent Bodipy-positive cells,[2],18 ± 12%
same,percent Bodipy-positive cells,[1],13.7% and 8.03%
CC(C)(C(=O)O)c1ccc(C(O)CCCN2CCC(C(O)(c3ccccc3)c3ccccc3)CC2)cc1 (stereo not drawn),percent Bodipy-positive cells,[1],27.8 ± 4%
CC(C)(C(=O)O)c1ccc(C(O)CCCN2CCC(C(O)(c3ccccc3)c3ccccc3)CC2)cc1 (stereo not drawn) [Fexofenadine HCl],percent Bodipy-positive cells,,12.7 ± 6.5%
same,percent Bodipy-positive cells,[2],9.85 ± 0.43%
same,percent Bodipy-positive cells,[1],22.2 ± 1.8%
CC(C)(C(=O)O)c1ccc(C(O)CCCN2CCC(C(O)(c3ccccc3)c3ccccc3)CC2)cc1 (stereo not drawn) [Fexofenadine hydrochloride],percent Bodipy-positive cells,[1],31.7% and 10.7%
CC(N)=NCCCC[C@H](N)C(=O)O [L-N6-(1-Iminoethyl)lysine hydrochloride],percent Bodipy-positive cells,[1],39.9 ± 12%
COc1ccc([C@@H]2CC(=O)c3c(O)cc(O[C@@H]4O[C@H](CO[C@@H]5O[C@@H](C)[C@H](O)[C@@H](O)[C@H]5O)[C@@H](O)[C@H](O)[C@H]4O)cc3O2)cc1O [Hesperidin],percent Bodipy-positive cells,,25.9 ± 2.7%
same,percent Bodipy-positive cells,[2],13 ± 3.4%
same,percent Bodipy-positive cells,[1],16.4 ± 2.7%
CCCCCCCCCCCCCCCCOC[C@H](COP(=O)([O-])OCC[N+](C)(C)C)SC(C)=O [2-thio-PAF],percent Bodipy-positive cells,library stock concentration: 1 mM,8.58 ± 0.2%
C[N+]1(C)C[C@H](O)C[C@H]1C(=O)[O-] [Betonicine],percent Bodipy-positive cells,,8.89 ± 3.8%
CC(=O)O[C@]1(C(C)=O)CC[C@H]2[C@@H]3C[C@H](C)C4=CC(=O)C=C[C@]4(C)[C@@]3(F)[C@@H](O)C[C@@]21C [Fluorometholone Acetate],percent Bodipy-positive cells,[2],7.61 ± 1.6%
same,percent Bodipy-positive cells,[1],25.9 ± 10%
"O=C(O)COc1ccc(OCCNC[C@H](O)COc2ccccc2)cc1 [ICI 215,001 hydrochloride]",percent Bodipy-positive cells,[1],8.57 ± 0.16%
Cc1ccc(-c2csc(NC(=O)c3ccccc3)n2)c(C)c1,percent Bodipy-positive cells,[2],36.5 ± 2.5%
same,percent Bodipy-positive cells,[1],52.8 ± 22%
CN(C)CCCN1c2ccccc2Sc2ccccc21 [Promazine hydrochloride],percent Bodipy-positive cells,,40.1 ± 2%
same,percent Bodipy-positive cells,library stock concentration: 6.2 mM,84 ± 1.5%
same,percent Bodipy-positive cells,[1],51.35 ± 0.37%
NC(Cc1ccc(Cl)cc1)C(=O)O (stereo not drawn) [(?)-p-Chlorophenylalanine],percent Bodipy-positive cells,[1],48.6 ± 14%
Cc1cc(C(C)(C)C)c(O)c(C)c1CC1=NCCN1 [Oxymetazoline HCl],percent Bodipy-positive cells,[2],13.2 ± 5.1%
same,percent Bodipy-positive cells,library stock concentration: 7.7 mM,20 ± 3.7%
same,percent Bodipy-positive cells,[1],25.1 ± 5.8%
Cc1cc(C(C)(C)C)c(O)c(C)c1CC1=NCCN1 [Oxymetazoline hydrochloride],percent Bodipy-positive cells,,40.8 ± 6.2%
same,percent Bodipy-positive cells,library stock concentration: 6.7 mM,13.1 ± 0.49%
NS(=O)(=O)c1cc(C(=O)O)cc(N2CCCC2)c1Oc1ccccc1 [Piretanide],percent Bodipy-positive cells,,9.1 ± 0.49%

# Four entries from above, bar-delimited.
smiles | measurement | setting | value
Cc1onc(-c2c(Cl)cccc2Cl)c1C(=O)N[C@@H]1C(=O)N2[C@@H]1SC(C)(C)[C@@H]2C(=O)O [Dicloxacillin sodium] | percent Bodipy-positive cells | [1] | 9.4 ± 0.17%
CN(C)CCCN1c2ccccc2Sc2ccccc21 [Promazine hydrochloride] | percent Bodipy-positive cells |  | 40.1 ± 2%
Cc1cc(C(C)(C)C)c(O)c(C)c1CC1=NCCN1 [Oxymetazoline HCl] | percent Bodipy-positive cells | [1] | 25.1 ± 5.8%
Cc1cc(C(C)(C)C)c(O)c(C)c1CC1=NCCN1 [Oxymetazoline hydrochloride] | percent Bodipy-positive cells |  | 40.8 ± 6.2%
